Results: publication doi:10.1101/2022.04.11.487887 (bioRxiv, 2022)
No constants are given. Whether binding was seen depends on the method and setting. Binding seen in cells or lysates may run through a third protein. A yes stands for co-enrichment or nearness to the bait. Other partners may have been found. Sequences can lack the tags named with a protein.

By UniProt entry, the sequences of proteins in these tests, tags left out.
UniProt P35567: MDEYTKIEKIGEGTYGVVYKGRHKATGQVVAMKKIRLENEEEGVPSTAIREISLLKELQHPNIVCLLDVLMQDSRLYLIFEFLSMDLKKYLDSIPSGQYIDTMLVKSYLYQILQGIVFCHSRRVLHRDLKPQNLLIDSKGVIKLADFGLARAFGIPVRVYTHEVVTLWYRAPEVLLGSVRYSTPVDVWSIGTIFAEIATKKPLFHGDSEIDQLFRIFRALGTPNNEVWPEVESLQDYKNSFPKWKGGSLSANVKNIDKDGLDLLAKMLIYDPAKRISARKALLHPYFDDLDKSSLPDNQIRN
UniProt P24033: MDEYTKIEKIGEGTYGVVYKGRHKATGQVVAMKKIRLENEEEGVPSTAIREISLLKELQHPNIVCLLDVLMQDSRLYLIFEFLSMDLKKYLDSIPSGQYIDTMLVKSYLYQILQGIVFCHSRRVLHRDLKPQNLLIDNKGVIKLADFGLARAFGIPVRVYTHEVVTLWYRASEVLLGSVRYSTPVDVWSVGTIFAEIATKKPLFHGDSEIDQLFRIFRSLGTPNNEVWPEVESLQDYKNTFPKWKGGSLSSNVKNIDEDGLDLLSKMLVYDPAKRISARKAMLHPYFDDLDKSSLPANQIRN
UniProt Q9DG02: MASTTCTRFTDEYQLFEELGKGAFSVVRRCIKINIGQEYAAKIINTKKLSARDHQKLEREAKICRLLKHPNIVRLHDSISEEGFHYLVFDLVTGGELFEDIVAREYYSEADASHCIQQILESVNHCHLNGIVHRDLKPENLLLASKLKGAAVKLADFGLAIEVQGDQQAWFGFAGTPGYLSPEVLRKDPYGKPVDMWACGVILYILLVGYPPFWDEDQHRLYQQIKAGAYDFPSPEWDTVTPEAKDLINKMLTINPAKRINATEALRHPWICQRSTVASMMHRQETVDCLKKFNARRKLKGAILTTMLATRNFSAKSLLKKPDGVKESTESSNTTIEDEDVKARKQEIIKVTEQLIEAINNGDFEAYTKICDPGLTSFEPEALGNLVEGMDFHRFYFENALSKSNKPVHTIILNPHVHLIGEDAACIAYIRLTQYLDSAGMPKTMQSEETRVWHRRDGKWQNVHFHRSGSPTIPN

Experiments:
[1] = biological target: T1, Strep-His-TEV-HaloTag-3C-Xenopus γTuNA (Xenopus laevis); test: affinity purification with mass spectrometry
T1 sequence: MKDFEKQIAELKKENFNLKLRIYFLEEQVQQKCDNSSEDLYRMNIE

[2] = biological target: T2, Strep-His-TEV-HaloTag-3C-human γTuNA (human); test: affinity purification with mass spectrometry
T2 sequence: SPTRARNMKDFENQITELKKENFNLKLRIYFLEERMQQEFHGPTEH

binding [1] | binding [2] | Substance
binds | binds | cyclin-dependent kinase 1 (CDK1) subunit A (from UniProt P35567 1-302)
binds | binds | cyclin-dependent kinase 1 (CDK1) subunit B (from UniProt P24033 1-302)
binds | binds | nucleoside diphosphate kinase 7 (NME7)
binds | binds | type II delta chain of the calmodulin-dependent protein kinase (CAMK2D) (from UniProt Q9DG02 1-475)
